# In PMC10282026:
# By UniProt entry, the sequences of proteins in these tests, tags left out.
# UniProt P62137: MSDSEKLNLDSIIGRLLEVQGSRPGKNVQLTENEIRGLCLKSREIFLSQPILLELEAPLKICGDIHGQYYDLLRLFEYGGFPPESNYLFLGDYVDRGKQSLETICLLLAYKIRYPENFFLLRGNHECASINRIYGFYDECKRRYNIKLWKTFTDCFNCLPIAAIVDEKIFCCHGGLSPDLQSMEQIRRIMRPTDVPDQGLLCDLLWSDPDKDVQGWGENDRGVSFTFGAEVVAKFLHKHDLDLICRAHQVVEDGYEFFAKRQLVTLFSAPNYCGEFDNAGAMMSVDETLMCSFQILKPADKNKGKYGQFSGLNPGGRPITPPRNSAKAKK
# These are yes or no findings as the source states them, for the method shown. Binding seen in cells or lysates may run through a third protein. These calls come from enrichment with a bait or labelling near it, and not all partners need be listed.
# Target: T1, Cyclin L1 (UniProt Q52KE7)
# T1 sequence: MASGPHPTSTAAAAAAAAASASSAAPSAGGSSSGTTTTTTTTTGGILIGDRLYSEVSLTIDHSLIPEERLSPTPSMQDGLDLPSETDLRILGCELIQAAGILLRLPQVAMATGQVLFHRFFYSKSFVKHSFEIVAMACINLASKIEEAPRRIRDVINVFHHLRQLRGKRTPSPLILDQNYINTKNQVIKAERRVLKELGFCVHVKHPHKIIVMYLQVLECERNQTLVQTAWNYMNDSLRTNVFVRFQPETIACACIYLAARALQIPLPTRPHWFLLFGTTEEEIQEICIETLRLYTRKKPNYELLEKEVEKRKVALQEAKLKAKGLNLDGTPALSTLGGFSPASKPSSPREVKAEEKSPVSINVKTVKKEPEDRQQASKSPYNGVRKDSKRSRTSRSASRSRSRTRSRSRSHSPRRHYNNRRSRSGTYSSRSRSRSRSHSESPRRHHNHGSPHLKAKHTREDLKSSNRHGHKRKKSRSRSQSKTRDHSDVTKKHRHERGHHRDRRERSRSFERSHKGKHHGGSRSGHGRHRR
# Assay: affinity purification with mass spectrometry; Co-IP/LC-MS of the immunoprecipitated CCNL1 complex; two groups, CCNL1-IgG and CCNL1-IP
substance,measurement,value
PPP1CA (from UniProt P62137 1-330) (enzyme),binding,binds
